Results reported in US12257237B2 (priority 2017, dated 2025).
Values joined by “and” are separate entries in the source; they are usually repeats but may differ in a detail not shown here. Equal entries are not always repeated. Further values from the same series stand in other lists.

Test system: DD013 dedifferentiated liposarcoma
Assay: Antitumour activity in DD013 dedifferentiated liposarcoma xenograft model
Format: in vivo, Athymic nude mice
Description: Experiments were performed with female Athymic nude mice, 9-10 weeks old obtained from Harlan Laboratories (Udine, Italy). They were maintained under Specific Pathogen Free conditions with constant temperature and humidity, according to the institutional guidelines.
Tumour growth mice was monitored two/three times a week (depending on tumour growth rate, to avoid unnecessary stress to the animals) by Vernier caliper. Mice were sacrificed when tumour reached a mean weight of 2±0.5 gr. The antitumour activity will be expressed as T/C %, where T and C were the mean tumour weight of treated and control groups, respectively. Mice were monitored daily and weighted at least two times a week. Tolerability was evaluated on the basis of body weight loss (BWL) and clinical observation.
Statistical analysis was performed with GraphPad Prism version 6.01 software (GraphPad software, Inc., La Jolla, CA, USA). ANOVA test was performed to evaluate if there were statistically significant differences between treated and control groups.
Briefly, xenografts were obtained by transplanting 3-4 mm tumour fragments s.c. in the flanks of mice. The growing tumour masses were measured with the aid of a Vernier caliper, and the tumour weights (TW, 1 mm^3=1 mg) were calculated by the formula: length×(width) 2/2. When tumour load achieved about 200-400 mg, mice were randomized into the experimental groups.

For `Cn1c(CCCCCCC(=O)NO)nc2cc(N(CCCl)CCCl)ccc21` [EDO-S101, 7-(5-(bis(2-chloroethyl)amino)-1-methyl-1H-benzo[d]imidazol-2-yl)-N-hydroxyheptanamide], the “DD0113 tumour weight, individual mouse” value (EDO60: EDO-S101 60 mg/kg q7dx3, day 33 from inoculum, 60 mg/kg) was 959.2 mg and 709.9 mg and 434.0 mg and 230.8 mg and 388.5 mg and 156.7 mg and 179.5 mg and 185.1 mg and 114.7 mg, the “DD0113 tumour weight, individual mouse” value (EDO60: EDO-S101 60 mg/kg q7dx3, day 36 from inoculum, 60 mg/kg) was 752.3 mg and 694.9 mg and 374.9 mg and 195.0 mg and 320.6 mg and 151.2 mg and 215.2 mg and 208.1 mg and 95.8 mg and the “DD0113 tumour weight, individual mouse” value (EDO60: EDO-S101 60 mg/kg q7dx3, day 40 from inoculum, 60 mg/kg) was 858.2 mg and 638.0 mg and 442.3 mg and 178.1 mg and 462.9 mg and 195.4 mg and 211.0 mg and 215.3 mg and 139.7 mg. The “DD0113 tumour weight, individual mouse” value (EDO60: EDO-S101 60 mg/kg q7dx3, day 43 from inoculum, 60 mg/kg) was 788.1 mg and 594.1 mg and 396.4 mg and 196.5 mg and 359.1 mg and 165.1 mg and 214.6 mg and 247.2 mg and 94.4 mg, the “DD0113 tumour weight, individual mouse” value (EDO60: EDO-S101 60 mg/kg q7dx3, day 47 from inoculum, 60 mg/kg) was 784.4 mg and 617.7 mg and 372.6 mg and 162.6 mg and 384.0 mg and 150.5 mg and 209.0 mg and 194.4 mg and 96.9 mg and the “DD0113 tumour weight, individual mouse” value (EDO60: EDO-S101 60 mg/kg q7dx3, day 50 from inoculum, 60 mg/kg) was 753.8 mg and 533.9 mg and 327.6 mg and 176.0 mg and 334.2 mg and 138.1 mg and 199.7 mg and 257.7 mg and 77.1 mg. For the same molecule, the “DD0113 tumour weight, individual mouse” value (EDO60: EDO-S101 60 mg/kg q7dx3, day 54 from inoculum, 60 mg/kg) was 868.2 mg and 564.0 mg and 225.0 mg and 134.2 mg and 413.0 mg and 123.8 mg and 227.1 mg and 253.8 mg and 80.6 mg, the “DD0113 tumour weight, individual mouse” value (EDO60: EDO-S101 60 mg/kg q7dx3, day 58 from inoculum, 60 mg/kg) was 862.4 mg and 420.0 mg and 265.4 mg and 150.8 mg and 404.6 mg and 134.5 mg and 187.9 mg and 247.8 mg and 56.8 mg and the “DD0113 tumour weight, individual mouse” value (EDO60: EDO-S101 60 mg/kg q7dx3, day 65 from inoculum, 60 mg/kg) was 998.1 mg and 352.1 mg and 125.3 mg and 133.1 mg and 350.2 mg and 133.4 mg and 187.4 mg and 278.4 mg and 66.8 mg. For the same molecule, the “DD0113 tumour weight, individual mouse” value (EDO60: EDO-S101 60 mg/kg q7dx3, day 69 from inoculum, 60 mg/kg) was 1344.4 mg and 347.7 mg and 142.7 mg and 96.1 mg and 371.1 mg and 86.2 mg and 191.3 mg and 367.8 mg and 63.8 mg, the “DD0113 tumour weight, individual mouse” value (EDO60: EDO-S101 60 mg/kg q7dx3, day 72 from inoculum, 60 mg/kg) was 1654.5 mg and 414.7 mg and 188.6 mg and 130.6 mg and 509.4 mg and 157.5 mg and 268.5 mg and 403.5 mg and 86.1 mg and the “DD0113 tumour weight, individual mouse” value (EDO60: EDO-S101 60 mg/kg q7dx3, day 75 from inoculum, 60 mg/kg) was 1698.0 mg and 457.6 mg and 170.8 mg and 110.6 mg and 516.6 mg and 123.5 mg and 307.7 mg and 441.0 mg and 70.2 mg. For the same molecule, the “DD0113 tumour weight, individual mouse” value (EDO60: EDO-S101 60 mg/kg q7dx3, day 79 from inoculum, 60 mg/kg) was 1977.8 mg and 571.8 mg and 172.6 mg and 132.6 mg and 555.7 mg and 152.1 mg and 256.1 mg and 404.7 mg and 58.1 mg, the “DD0113 tumour weight, individual mouse” value (EDO60: EDO-S101 60 mg/kg q7dx3, day 83 from inoculum, 60 mg/kg) was 1774.9 mg and 335.3 mg and 86.5 mg and 56.8 mg and 415.0 mg and 71.0 mg and 193.9 mg and 426.4 mg and 32.7 mg and the “DD0113 tumour weight, individual mouse” value (EDO60: EDO-S101 60 mg/kg q7dx3, day 87 from inoculum, 60 mg/kg) was 1753.1 mg and 396.9 mg and 125.1 mg and 78.1 mg and 442.6 mg and 82.4 mg and 209.1 mg and 423.2 mg and 31.4 mg. The “DD0113 tumour weight, individual mouse” value (EDO60: EDO-S101 60 mg/kg q7dx3, day 90 from inoculum, 60 mg/kg) was 1903.1 mg and 365.0 mg, the “DD0113 tumour weight, individual mouse” value (EDO60: EDO-S101 60 mg/kg q7dx3, day 94 from inoculum, 60 mg/kg) was 1967.5 mg and 403.0 mg and the “DD0113 tumour weight, individual mouse” value (EDO60: EDO-S101 60 mg/kg q7dx3, day 98 from inoculum, 60 mg/kg) was 1939.1 mg and 387.0 mg. The “DD0113 tumour weight, individual mouse” value (EDO60: EDO-S101 60 mg/kg q7dx3, day 100 from inoculum, 60 mg/kg) was 2099.8 mg and 463.0 mg, the “DD0113 tumour weight, individual mouse” value (EDO60: EDO-S101 60 mg/kg q7dx3, day 111 from inoculum, 60 mg/kg) was 2171.7 mg and 368.4 mg and the “DD0113 tumour weight, individual mouse” value (EDO60: EDO-S101 60 mg/kg q7dx3, day 114 from inoculum, 60 mg/kg) was 2520.5 mg and 487.7 mg. The “DD0113 tumour weight, individual mouse” value (EDO60: EDO-S101 60 mg/kg q7dx3, day 118 from inoculum, 60 mg/kg) was 3030.9 mg and 526.7 mg, the “DD0113 tumour weight, individual mouse” value (EDO80: EDO-S101 80 mg/kg single dose, day 23 from inoculum, 80 mg/kg) was 176.4 mg and 118.7 mg and 113.3 mg and 81.5 mg and the “DD0113 tumour weight, individual mouse” value (EDO80: EDO-S101 80 mg/kg single dose, day 26 from inoculum, 80 mg/kg) was 236.0 mg and 145.4 mg and 152.8 mg and 89.0 mg. The “DD0113 tumour weight, individual mouse” value (EDO80: EDO-S101 80 mg/kg single dose, day 29 from inoculum, 80 mg/kg) was 229.9 mg and 182.9 mg and 95.7 mg and 80.4 mg, the “DD0113 tumour weight, individual mouse” value (EDO80: EDO-S101 80 mg/kg single dose, day 33 from inoculum, 80 mg/kg) was 247.0 mg and 151.7 mg and 103.9 mg and 105.2 mg and the “DD0113 tumour weight, individual mouse” value (EDO80: EDO-S101 80 mg/kg single dose, day 36 from inoculum, 80 mg/kg) was 242.1 mg and 168.5 mg and 129.4 mg and 109.8 mg.
